Reference: publication PMC11610224
Results are given in words; binding and its absence hold for the method and conditions named. In cells and extracts the contact can be indirect. Some binding calls cover weakened binding; strength is not graded here. One block for each molecule: values may come before it.

The chains behind the UniProt entries cited, without tags or fusion partners.
UniProt Q9C0C7: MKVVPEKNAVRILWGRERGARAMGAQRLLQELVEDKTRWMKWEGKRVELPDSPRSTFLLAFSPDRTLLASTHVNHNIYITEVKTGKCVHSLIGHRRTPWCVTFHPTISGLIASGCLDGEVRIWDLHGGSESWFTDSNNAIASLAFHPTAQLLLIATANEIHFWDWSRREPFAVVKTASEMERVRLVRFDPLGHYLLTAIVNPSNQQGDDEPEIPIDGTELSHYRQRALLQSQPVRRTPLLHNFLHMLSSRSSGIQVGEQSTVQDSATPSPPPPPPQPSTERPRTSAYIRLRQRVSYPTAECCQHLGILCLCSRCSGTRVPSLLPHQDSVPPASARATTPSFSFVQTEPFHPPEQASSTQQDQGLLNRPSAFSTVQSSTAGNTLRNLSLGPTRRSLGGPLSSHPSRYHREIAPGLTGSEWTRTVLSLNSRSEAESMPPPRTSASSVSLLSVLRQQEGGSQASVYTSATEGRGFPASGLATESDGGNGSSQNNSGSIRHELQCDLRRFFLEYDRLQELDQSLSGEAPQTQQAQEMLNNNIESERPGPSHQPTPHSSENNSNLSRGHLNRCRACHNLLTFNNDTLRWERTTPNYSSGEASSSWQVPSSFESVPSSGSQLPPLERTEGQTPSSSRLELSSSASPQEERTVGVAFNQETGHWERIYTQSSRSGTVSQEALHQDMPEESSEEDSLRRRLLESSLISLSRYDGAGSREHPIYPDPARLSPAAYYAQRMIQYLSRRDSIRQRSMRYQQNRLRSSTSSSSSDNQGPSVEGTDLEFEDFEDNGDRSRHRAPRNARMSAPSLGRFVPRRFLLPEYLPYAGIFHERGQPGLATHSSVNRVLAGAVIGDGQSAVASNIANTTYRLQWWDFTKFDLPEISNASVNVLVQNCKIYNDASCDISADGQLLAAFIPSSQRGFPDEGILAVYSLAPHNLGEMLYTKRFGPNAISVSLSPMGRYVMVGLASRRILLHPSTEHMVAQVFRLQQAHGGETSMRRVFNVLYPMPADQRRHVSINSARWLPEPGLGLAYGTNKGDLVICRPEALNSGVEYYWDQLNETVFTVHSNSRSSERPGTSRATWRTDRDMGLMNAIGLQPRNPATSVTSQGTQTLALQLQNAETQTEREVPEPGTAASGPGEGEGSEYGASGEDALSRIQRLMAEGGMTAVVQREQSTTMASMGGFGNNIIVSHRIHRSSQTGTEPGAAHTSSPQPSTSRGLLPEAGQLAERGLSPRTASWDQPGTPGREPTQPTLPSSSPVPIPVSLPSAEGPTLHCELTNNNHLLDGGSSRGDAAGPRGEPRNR
UniProt Q96GD4: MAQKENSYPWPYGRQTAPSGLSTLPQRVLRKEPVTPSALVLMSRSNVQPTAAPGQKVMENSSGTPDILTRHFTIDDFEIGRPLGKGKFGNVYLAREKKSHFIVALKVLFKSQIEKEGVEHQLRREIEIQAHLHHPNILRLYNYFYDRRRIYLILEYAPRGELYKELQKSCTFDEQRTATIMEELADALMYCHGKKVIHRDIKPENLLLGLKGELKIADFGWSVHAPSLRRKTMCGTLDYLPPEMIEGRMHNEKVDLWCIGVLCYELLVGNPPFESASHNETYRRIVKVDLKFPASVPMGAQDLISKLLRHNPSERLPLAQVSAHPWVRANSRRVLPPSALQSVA

Legend:
3xFLAG-AMBRA1 [1] = molecular target: 3xFLAG-AMBRA1 (UniProt Q9C0C7); experiment: condition: only in BT12 cells (AMBRA1 non-responder); co-IP; anti-FLAG immunoprecipitation from lysate of BT12 cells (AMBRA1 non-responder) expressing AMBRA1-FLAG, western blot
3xFLAG-AMBRA1 [2] = molecular target: 3xFLAG-AMBRA1 (UniProt Q9C0C7); experiment: co-IP; anti-FLAG immunoprecipitation from lysates of ATRT cell lines expressing AMBRA1-FLAG, western blot; MLN4924-treated cells; results told for the cell lines together or for CHLA266 (AMBRA1 responder)
3xFLAG-AMBRA1 [3] = molecular target: 3xFLAG-AMBRA1 (UniProt Q9C0C7); experiment: as above; remark: listed apart in the source

binding (3xFLAG-AMBRA1 [1]): no binding
binding (3xFLAG-AMBRA1 [2]): binds weakly
Molecule: AURKB (from UniProt Q96GD4 1-344)

binding (3xFLAG-AMBRA1 [1]): no binding
binding (3xFLAG-AMBRA1 [3]): binds
B1: AURKA (protein, UniProt O14965 1-403)
chain: MDRSKENCISGPVKATAPVGGPKRVLVTQQFPCQNPLPVNSGQAQRVLCPSNSSQRIPLQAQKLVSSHKPVQNQKQKQLQATSVPHPVSRPLNNTQKSKQPLPSAPENNPEEELASKQKNEESKKRQWALEDFEIGRPLGKGKFGNVYLAREKQSKFILALKVLFKAQLEKAGVEHQLRREVEIQSHLRHPNILRLYGYFHDATRVYLILEYAPLGTVYRELQKLSKFDEQRTATYITELANALSYCHSKRVIHRDIKPENLLLGSAGELKIADFGWSVHAPSSRRTTLCGTLDYLPPEMIEGRMHDEKVDLWSLGVLCYEFLVGKPPFEANTYQETYKRISRVEFTFPDFVTEGARDLISRLLKHNPSQRPMLREVLEHPWITANSSKPSNCQNKESASKQS
